Source: patent publication US5032514A, “Metabolic pathway engineering to increase production of ascorbic acid intermediates” (Genentech, Inc., priority 1988, dated 1991)
At least one structure is not confirmed: it was looked up by name or label, or the drawing left a doubt.

Test system: gluconate dehydrogenase
Assay: membrane bound gluconate dehydrogenase assay (crude membrane fraction)

With `O=C(O)[C@H](O)[C@@H](O)[C@H](O)[C@H](O)CO` [GA, D-gluconate] the “specific activity for GA oxidation” value (crude membrane fraction) was 0.45 μmol/min.mg protein and the Km (read-out: apparent Km, gluconate dehydrogenase activity, pH 6.0, 25° C.) was 330 µM.
